Taken from: PubChem BioAssay AID504786 (Drosophila RNAi Screening Center, 2011)
The deposit covers about 21,000 reagents; below is an unselected part of those that have a named target and a result. 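Primary screen; positive scores mean lost reporter signal, so the sign may be inverted from the usual convention.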 A plus sign joins genes that one reagent is predicted to hit. Not all columns of the deposit are shown. No sequences are given here.

Screen: 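Knock-downs reducing HIF reporter induction by the iron chelator DFO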 (primary screen)
Cell system: Drosophila S2 cells with a stable HIF luciferase reporter
Reagents: long dsRNA against Drosophila genes, about 0.2 µg dsRNA per well of a 384-well plate
Timing: three days of knock-down, then 20 h of DFO before reading
Challenge: desferrioxamine (DFO) at 100 µM, an iron chelator that mimics hypoxia, for 20 h
Detection: 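HIF reporter luminescence in cells given 100 µM DFO for 20 h, using the mouse ldh-a hypoxia-response element, scored as per-plate z-scores; higher means greater loss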
Scale: z-score: higher = stronger loss of HIF reporter signal

target gene | dsRNA | z-score, replicate 1 | z-score, replicate 2 | z-score, replicate 3
tou (toutatis) | DRSC06006 | -0.4 | -0.8 | –
CG31705 | DRSC01991 | 1.6 | 2.9 | –
CG31404 | DRSC15497 | -1.1 | -0.7 | –
CG18558 | DRSC00525 | 0 | 0 | –
CG11816 | DRSC19428 | 0.1 | 0.1 | –
aru (arouser) | DRSC00802 | -0.3 | -0.3 | –
CG15376 (retired record) | DRSC18046 | -0.3 | -0.1 | –
CG3906 | DRSC04431 | -0.2 | -0.2 | –
CG11566 (retired record) + stg1 | DRSC20473 | -0.8 | -0.9 | –
CG11566 (retired record) + stg1 | DRSC20481 | 0.2 | 0.3 | –
CG11566 (retired record) + stg1 | DRSC20482 | -0.3 | -0.5 | –
CG11566 (retired record) + stg1 | DRSC20483 | -0.1 | -0.1 | –
Slu7 | DRSC14729 | 4.5 | 3.7 | –
CG6294 + CG6299 | DRSC19980 | -0.4 | 0 | –
Vdup1 (Vitamin D[[3]] up-regulated protein 1) | DRSC08586 | -0.2 | 0.2 | –
CG15711 | DRSC06582 | -0.2 | 0.7 | –
CG17193 | DRSC15187 | -0.1 | 0 | –
Teh4 (tipE homolog 4) | DRSC08457 | -0.3 | 0.3 | –
Ist1 | DRSC09697 | -0.3 | 0.1 | –
CG10348 | DRSC02043 | -0.4 | 0 | –
CG14817 | DRSC18547 | 0.9 | 0.7 | –
COX5BL (Cytochrome c oxidase subunit 5B-like) | DRSC02123 | -0.3 | -0.5 | –
Grl62a (Gustatory receptor-like 62a) | DRSC07963 | -0.3 | -0.5 | –
Syt1 (Synaptotagmin 1) | DRSC00156 | -0.5 | -0.3 | –
Syt1 (Synaptotagmin 1) | DRSC00157 | -0.7 | -0.4 | –
Syt1 (Synaptotagmin 1) | DRSC00158 | -0.7 | 0 | –
Syt1 (Synaptotagmin 1) | DRSC00840 | -0.2 | -0.3 | –
unk (unkempt) | DRSC17093 | -0.3 | -0.5 | –
CG5062 | DRSC18385 | -0.3 | -0.5 | –
rempA (reduced mechanoreceptor potential A) | DRSC00327 | 0.1 | -0.2 | –
Cpr5C (Cuticular protein 5C) | DRSC18340 | -0.3 | -0.6 | 0.3
CG13842 | DRSC14692 | -0.4 | 0.4 | –
plh (pasang lhamu) | DRSC12294 | -0.2 | -0.2 | –
RpLP1 (Ribosomal protein LP1) | DRSC00783 | 3.2 | 4.8 | –
Dnaaf5 (Dynein axonemal assembly factor 5) | DRSC13032 | 0.5 | -0.2 | –
Pen (Pendulin) | DRSC03396 | -0.3 | -0.8 | –
Vm32E (Vitelline membrane 32E) | DRSC03474 | -0.3 | -0.3 | –
tau | DRSC14569 | -0.7 | 0.1 | –
CG15255 | DRSC01869 | -0.2 | 0.7 | –
CG15395 | DRSC00409 | 0.3 | -0.3 | –
Fsn (F-box synaptic protein) | DRSC06875 | -0.2 | 0 | –
Catsup (Catecholamines up) | DRSC03288 | -0.2 | -0.3 | –

Part of the list above in another layout:
{"target gene": "CG6294 + CG6299", "dsRNA": "DRSC19980", "z-score, replicate 1": -0.4, "z-score, replicate 2": 0}
{"target gene": "Vdup1 (Vitamin D[[3]] up-regulated protein 1)", "dsRNA": "DRSC08586", "z-score, replicate 1": -0.2, "z-score, replicate 2": 0.2}
{"target gene": "CG15711", "dsRNA": "DRSC06582", "z-score, replicate 1": -0.2, "z-score, replicate 2": 0.7}
{"target gene": "CG17193", "dsRNA": "DRSC15187", "z-score, replicate 1": -0.1, "z-score, replicate 2": 0}
{"target gene": "Teh4 (tipE homolog 4)", "dsRNA": "DRSC08457", "z-score, replicate 1": -0.3, "z-score, replicate 2": 0.3}
{"target gene": "Ist1", "dsRNA": "DRSC09697", "z-score, replicate 1": -0.3, "z-score, replicate 2": 0.1}
{"target gene": "CG10348", "dsRNA": "DRSC02043", "z-score, replicate 1": -0.4, "z-score, replicate 2": 0}
{"target gene": "CG14817", "dsRNA": "DRSC18547", "z-score, replicate 1": 0.9, "z-score, replicate 2": 0.7}
{"target gene": "COX5BL (Cytochrome c oxidase subunit 5B-like)", "dsRNA": "DRSC02123", "z-score, replicate 1": -0.3, "z-score, replicate 2": -0.5}

The list goes on.
target gene | dsRNA | z-score, replicate 1 | z-score, replicate 2 | z-score, replicate 3
Septin5 (Septin 5) | DRSC06843 | -0.3 | -0.4 | –
grp + CG31782 (retired record) | DRSC03541 | -0.3 | 0.2 | –
CG6985 | DRSC16164 | -0.3 | -0.6 | –
CG4477 | DRSC10425 | -0.2 | 0.1 | –
Obp56d (Odorant-binding protein 56d) | DRSC06064 | -0.3 | -0.8 | –
CG13365 | DRSC17899 | -0.3 | -0.5 | –
Vta1 (Vesicle trafficking 1) | DRSC08604 | -0.4 | -0.5 | -0.1
jagn (jagunal) | DRSC12152 | -0.4 | -0.7 | –
CG18231 | DRSC10307 | -0.2 | -0.4 | –
CG17883 | DRSC07838 | -0.4 | -0.3 | –
Hr96 (Hormone receptor-like in 96) | DRSC16707 | -0.3 | -0.4 | –
CG3149 | DRSC17732 | -0.3 | -0.5 | –
CG2121 | DRSC06819 | -0.3 | -0.5 | –
CG2121 | DRSC06820 | -0.3 | -0.2 | –
CG10543 | DRSC04081 | -0.3 | -0.1 | –
Phb2 (Prohibitin 2) | DRSC06512 | 1 | 0 | –
Root (Rootletin) | DRSC15972 | -0.4 | -0.3 | –
CG12483 | DRSC08278 | -0.4 | 0.2 | –
alphaTry (alphaTrypsin) | DRSC07577 | -0.4 | -0.3 | –
Dg (Dystroglycan) | DRSC06718 | -0.2 | -0.1 | –
CG4951 | DRSC15682 | -0.3 | -0.2 | –
CG1239 | DRSC12204 | -0.3 | -0.3 | –
Sec24AB (Secretory 24AB) | DRSC06478 | -0.4 | -0.9 | –
trk (trunk) | DRSC03625 | -0.1 | 0.1 | –
CG12995 | DRSC19515 | -0.3 | -0.6 | –
CG7634 | DRSC11843 | -0.2 | -0.2 | –
RpS15Ab + RpS15Aa | DRSC06129 | 6.8 | 3.3 | –
RpS15Ab + RpS15Aa | DRSC19831 | 8.7 | 4.2 | –
XRCC1 | DRSC18729 | -0.3 | -0.1 | –
nes (nessy) | DRSC11375 | -0.2 | 0 | –
CG9316 | DRSC03195 | -0.2 | -0.2 | –
CG3376 | DRSC04362 | 0.1 | -0.9 | –
Epp (Ecdysteroid phosphate phosphatase) | DRSC14607 | -0.2 | -0.3 | –
CG14131 | DRSC10135 | 0 | -0.7 | –
Mvb12 (Multivesicular body subunit 12) | DRSC20027 | -0.3 | -1 | –
CG10752 | DRSC09799 | 0 | 0.2 | –
mRpS34 (mitochondrial ribosomal protein S34) | DRSC09918 | 0.3 | 0.2 | –
CG31454 | DRSC14365 | -0.4 | -0.6 | –
pcm (pacman) | DRSC20361 | 0 | -0.1 | –
CG8654 | DRSC07231 | -0.4 | -1 | –
ASPP | DRSC04305 | 2.5 | 2.7 | –
